For 1 molecule, binding results are on record in publication PMC6858455.

Sequences of proteins named here, by UniProt entry; tags and fusion partners are left off.
UniProt Q96KS0: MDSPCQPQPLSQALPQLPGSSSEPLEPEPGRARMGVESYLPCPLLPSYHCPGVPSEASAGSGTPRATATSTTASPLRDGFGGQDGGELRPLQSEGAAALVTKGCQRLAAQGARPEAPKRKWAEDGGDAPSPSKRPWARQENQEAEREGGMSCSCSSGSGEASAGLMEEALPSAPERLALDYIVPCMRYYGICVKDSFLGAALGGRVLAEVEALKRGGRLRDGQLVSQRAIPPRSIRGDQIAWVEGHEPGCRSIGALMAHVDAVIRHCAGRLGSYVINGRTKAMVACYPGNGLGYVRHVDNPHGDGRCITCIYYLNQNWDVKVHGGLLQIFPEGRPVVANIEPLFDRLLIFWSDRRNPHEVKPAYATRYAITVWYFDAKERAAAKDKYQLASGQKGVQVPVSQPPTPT

Results are given in words; binding and its absence hold for the method and conditions named. In cells and extracts the contact can be indirect. A yes stands for co-enrichment or nearness to the bait. Other partners may have been found.

For assay [1], the target named is FLAG- and HA-tagged EglN2, wild-type (WT) (UniProt Q96KS0). Briefly: affinity purification with mass spectrometry; TAP-TAG purification (anti-FLAG M2 gel, then HA beads) of FLAG-HA-WT EglN2 from HIF-1α-depleted MDA-MB-231 cells, normoxia or hypoxia + DMOG.
The target in assay [2] is GST-EglN2 (UniProt Q96KS0). Briefly: affinity purification with mass spectrometry; pull-down with GST-control or GST-EglN2 beads from lysates of HIF-1α-depleted MDA-MB-231 cells, normoxia or hypoxia + DMOG, then mass spectrometry; only the target purified.

B1: adenylosuccinate lyase (ADSL), endogenous (enzyme, UniProt P30566 1-484)
chain: MAAGGDHGSPDSYRSPLASRYASPEMCFVFSDRYKFRTWRQLWLWLAEAEQTLGLPITDEQIQEMKSNLENIDFKMAAEEEKRLRHDVMAHVHTFGHCCPKAAGIIHLGATSCYVGDNTDLIILRNALDLLLPKLARVISRLADFAKERASLPTLGFTHFQPAQLTTVGKRCCLWIQDLCMDLQNLKRVRDDLRFRGVKGTTGTQASFLQLFEGDDHKVEQLDKMVTEKAGFKRAFIITGQTYTRKVDIEVLSVLASLGASVHKICTDIRLLANLKEMEEPFEKQQIGSSAMPYKRNPMRSERCCSLARHLMTLVMDPLQTASVQWFERTLDDSANRRICLAEAFLTADTILNTLQNISEGLVVYPKVIERRIRQELPFMATENIIMAMVKAGGSRQDCHEKIRVLSQQAASVVKQEGGDNDLIERIQVDAYFSPIHSQLDHLLDPSSFTGRASQQVQRFLEEEVYPLLKPYESVMKVKAELCL
For the molecule B1, the binding entry in assay [1] and in assay [2] was “binds” throughout.
